Reference: paper PMC7819943, “Rice protein-binding microarrays: a tool to detect cis-acting elements near promoter regions in rice”
The other results are listed elsewhere or left out.

Chains of the proteins cited; added tags and fusions are not shown.
UniProt Q0JBA9, entry or part of it: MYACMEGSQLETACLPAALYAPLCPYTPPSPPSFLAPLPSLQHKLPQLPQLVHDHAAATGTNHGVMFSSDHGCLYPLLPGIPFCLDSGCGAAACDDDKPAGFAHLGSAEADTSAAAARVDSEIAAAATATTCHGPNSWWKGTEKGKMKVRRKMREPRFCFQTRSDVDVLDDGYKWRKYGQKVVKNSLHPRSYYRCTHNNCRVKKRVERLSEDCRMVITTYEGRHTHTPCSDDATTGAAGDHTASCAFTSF

biological target: OsWRKY34 (Oryza sativa, UniProt Q0JBA9 1-250); assay: protein-binding microarray (RPBM); PBS, 2% BSA, 51.3 ng/ul salmon testes DNA, 50 uM zinc acetate, 200 nM TF, 25 C, 1 h; high values mean tight binding; settings: protein: recombinant; tags: N-terminal polyhistidine and DsRed monomer fusion (pET32a); label: CyDye5-dUTP incorporated in the synthesized complementary strand; 3' TTTTT single-stranded linker to array surface; dsDNA, one strand shown
In short: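 The binding signal is fluorescence intensity per feature, in arbitrary units, read on an Axon 4000B scanner. Polyhistidine- and DsRed-tagged transcription factors (N-terminal fusions) from E. coli BL21-CodonPlus were purified on Ni–NTA and applied at 200 nM for 1 h at 25 °C to a double-stranded, BSA-blocked custom Agilent array in buffer with 50 µM zinc acetate.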

Sequence	binding signal
TTTGAGTTTATCTCCTACTCTGGTTGTGCCATTGTCATTACGGAGTCACCTAGTGCAG	10900 fluorescence intensity (a.u.)
CCACGACTGACCTCTTGACCTCTGAGATTTATTGATTAGACGGAGTCACCTAGTGCAG	8690 fluorescence intensity (a.u.)
TTTCCTCCGTCCCTGAGCTGTACTCGCGCCAATCAATCATCGGAGTCACCTAGTGCAG	9570 fluorescence intensity (a.u.)
TGTCGTACTACGTAGATCCTCGTACCAGCGTACCCCAATACGGAGTCACCTAGTGCAG	8220 fluorescence intensity (a.u.)
TTCTTCTTCAACTCCGGTTGCCGGCCCTCTTCTTCTTCAACGGAGTCACCTAGTGCAG	9940 fluorescence intensity (a.u.)
TGGTGACTGGGTAGGTGGTGGTGGTGGTGCGCGGCGGCGGCGGAGTCACCTAGTGCAG	8620 fluorescence intensity (a.u.)
TCGCTATCAACAAACAGTGCACGCTTCGGTTCTTGTCTGTCGGAGTCACCTAGTGCAG	12500 fluorescence intensity (a.u.)
CACCCAGCTGCAACATGGATCACCAAACATATCGATCCTTCGGAGTCACCTAGTGCAG	8220 fluorescence intensity (a.u.)
ACTATGTACACCACCTACACACCACAACAACCCGCACCACCGGAGTCACCTAGTGCAG	8830 fluorescence intensity (a.u.)
CTTCCTCATCTCTCTCTCACTTCTCTCCTCTCTGTAGGGCCGGAGTCACCTAGTGCAG	8660 fluorescence intensity (a.u.)
TGTTGATGAGCTAAAGGTTGCAAATTGGAATGGTTTGGGGCGGAGTCACCTAGTGCAG	8390 fluorescence intensity (a.u.)
CTGCGTTAGTTGTTGCGTCCCGCCTTGTCCGTCCTTGTCACGGAGTCACCTAGTGCAG	10200 fluorescence intensity (a.u.)
TATCCCTTGGCTGTCCCATCGTCCATTTCAAGTTCTGCATCGGAGTCACCTAGTGCAG	11600 fluorescence intensity (a.u.)
GATCAGAGATGAGGGCGGGCGGGTTGACTGGGAGAGTAGACGGAGTCACCTAGTGCAG	20500 fluorescence intensity (a.u.)
CCTCGTCCTCGTCTCGTCTCGTCTCCTCTCCGCCTCTTTCCGGAGTCACCTAGTGCAG	10000 fluorescence intensity (a.u.)
CTAGAAAGAGGATTGCTCACTTCCACATACGTGCCGCTTTCGGAGTCACCTAGTGCAG	8660 fluorescence intensity (a.u.)
AAGGTTGGTTGGTTGGTCGCCGTCGTTGGCCATGGCCATGCGGAGTCACCTAGTGCAG	8710 fluorescence intensity (a.u.)
GCACTCGCACTACACCCACCCACCCATCGATCCATCCATCCGGAGTCACCTAGTGCAG	9140 fluorescence intensity (a.u.)
ACCTGTAATTCAGTAGTACTTGTGTCCATTGATTTATGATCGGAGTCACCTAGTGCAG	8900 fluorescence intensity (a.u.)
GGTGCTTTGACTTTGTCATCGCGCGCGCGCATATATACTACGGAGTCACCTAGTGCAG	10500 fluorescence intensity (a.u.)
TTCCTAATTGCTCTGTTTTAGCTGCCACAGGGAATCAACTCGGAGTCACCTAGTGCAG	8900 fluorescence intensity (a.u.)
AATTCTAGTCATTGATGATTATTTTTGACTGCTTCACTTTCGGAGTCACCTAGTGCAG	10800 fluorescence intensity (a.u.)
CAACAAGCTCCGTCTCTGCCACACCCACACTGTGCCGCAACGGAGTCACCTAGTGCAG	8480 fluorescence intensity (a.u.)
TGTGATTTTTTTATGGCATTTGACATTTTTTTTGGCCGCTCGGAGTCACCTAGTGCAG	9810 fluorescence intensity (a.u.)
AATATTCGCTACCGTATTCGTTCCGTCTCGTATTCGCTCCCGGAGTCACCTAGTGCAG	10900 fluorescence intensity (a.u.)
CGAGCTGGAGTAGAGTTTGTTGGTTTTTCTTGTCTCATCTCGGAGTCACCTAGTGCAG	9620 fluorescence intensity (a.u.)
CCTCGCCTCTCTAATCACCCGCTTCGCTTCCCAATCTCTCCGGAGTCACCTAGTGCAG	12700 fluorescence intensity (a.u.)

Sequence	binding signal
AAGGTTATGTTTTCTTGCTAGCTAGTCTCTCCTGTTCAAACGGAGTCACCTAGTGCAG	10600 fluorescence intensity (a.u.)
GCGTCGGGGTCTAGGAAGGAGTTGTTGTAGGTGTCGAACTCGGAGTCACCTAGTGCAG	8310 fluorescence intensity (a.u.)
CGTCTCCTCGTCCTCATCCACGGCGAGTCCGCGTCATCCACGGAGTCACCTAGTGCAG	8400 fluorescence intensity (a.u.)
CTGTATCGAGTTTAATTTATCCTTCATTTTTACTAACTTTCGGAGTCACCTAGTGCAG	8140 fluorescence intensity (a.u.)
TGGTTGTTTCTTGTTGTGGCCTAACTTATGTTTTATTCCACGGAGTCACCTAGTGCAG	9970 fluorescence intensity (a.u.)
TTGATGCACTTTGTTTTCTAGGTTTTTTTTTTGGCAGCTACGGAGTCACCTAGTGCAG	9690 fluorescence intensity (a.u.)
GTAACTACGCTGACTTATTGCTGGAGTATTCTTTTTTTTTCGGAGTCACCTAGTGCAG	10000 fluorescence intensity (a.u.)
TTTTTGTTTTACTTTGTCAAAGTTTTACACTTGTATTCCTCGGAGTCACCTAGTGCAG	8040 fluorescence intensity (a.u.)
TTGCATATTTTGTAGAGTGATCTATCACATGTTAGTATATCGGAGTCACCTAGTGCAG	8100 fluorescence intensity (a.u.)
AGAGATTTCTTTCTTCTTCTTGATTTTTTTTGATTCGCTTCGGAGTCACCTAGTGCAG	10400 fluorescence intensity (a.u.)
GCGTCACTTTTACTCTACATTTTCTCCCATTTATAAACAACGGAGTCACCTAGTGCAG	11300 fluorescence intensity (a.u.)
GCCCGTAATCCATCTCTTGAACGGCCGTGTGTGTGTTCTTCGGAGTCACCTAGTGCAG	12400 fluorescence intensity (a.u.)
TACATATATCGACGCAGACCCGCGACCCGTTAAGCCTATCCGGAGTCACCTAGTGCAG	9270 fluorescence intensity (a.u.)
GCCTGTACCTTTTGGTTATGCACTCTCTCAACAAAGTGTACGGAGTCACCTAGTGCAG	8490 fluorescence intensity (a.u.)
GGATTTTTGACGGGGTTTTGCAACGGACTTGACTTGTTTACGGAGTCACCTAGTGCAG	8320 fluorescence intensity (a.u.)
CTTGTTTTTTTTTTCTTCTTTTTTCCTTGTCCCATGGCAACGGAGTCACCTAGTGCAG	9830 fluorescence intensity (a.u.)
CAAATACAATGATATTATTCCACTTTGTTCTTTTATGATGCGGAGTCACCTAGTGCAG	9120 fluorescence intensity (a.u.)
ACAATTTCGATTTAGCTTAAATTTCATCTTTTGTAATATACGGAGTCACCTAGTGCAG	8590 fluorescence intensity (a.u.)
CCCTCTCTCCATCTGGTGCTCTCTATCTGAGGAATCCGAACGGAGTCACCTAGTGCAG	8660 fluorescence intensity (a.u.)
ATACTGTCTGCGTCTCCTATTGTTGGCAACGTCGTAATTACGGAGTCACCTAGTGCAG	12000 fluorescence intensity (a.u.)
GATGTTTTTGCGCTTAATTCAATTTGTACACAATTTTCACCGGAGTCACCTAGTGCAG	8360 fluorescence intensity (a.u.)
GGTTCCAACTTCGTGTTGCATATTCTTAGGCCCGATCTTGCGGAGTCACCTAGTGCAG	8860 fluorescence intensity (a.u.)
ACAAATTTGTAGCCCGCTGCTCTTCTCTCTCATCTTTTATCGGAGTCACCTAGTGCAG	9220 fluorescence intensity (a.u.)
ACGCGCCGCAACGCAACTTCCATGGACGCATCTGGACCACCGGAGTCACCTAGTGCAG	8130 fluorescence intensity (a.u.)
CCTCTGCCATCATCGTCGTCATCCCATCCGGATTGCCACCCGGAGTCACCTAGTGCAG	9100 fluorescence intensity (a.u.)
GCAATCTGTGTAATTAGTTATTTTTTCGTTTATATTTAATCGGAGTCACCTAGTGCAG	8490 fluorescence intensity (a.u.)
GCCTCCTCTCGTTCTCGTCAACTGTCTCCGCCTCTCCGGCCGGAGTCACCTAGTGCAG	9690 fluorescence intensity (a.u.)

Part of the list above in another layout.
Sequence | binding signal
ACAAATTTGTAGCCCGCTGCTCTTCTCTCTCATCTTTTATCGGAGTCACCTAGTGCAG | 9220 fluorescence intensity (a.u.)
ACGCGCCGCAACGCAACTTCCATGGACGCATCTGGACCACCGGAGTCACCTAGTGCAG | 8130 fluorescence intensity (a.u.)
CCTCTGCCATCATCGTCGTCATCCCATCCGGATTGCCACCCGGAGTCACCTAGTGCAG | 9100 fluorescence intensity (a.u.)
GCAATCTGTGTAATTAGTTATTTTTTCGTTTATATTTAATCGGAGTCACCTAGTGCAG | 8490 fluorescence intensity (a.u.)
